Earlier results in publication PMC5316403, “A multicenter assessment of single-cell models aligned to standard measures of cell health for prediction of acute hepatotoxicity” (Archives of Toxicology, 2016).

System: man
Conditions: reported to cause hepatotoxicity in man or not; ref references in Table 4; cited from earlier work

Question: Which Hepatotoxic/non-hepatotoxic does the source give for `CCCCc1oc2ccccc2c1C(=O)c1cc(I)c(OCCN(CC)CC)c(I)c1` [Amiodarone] here?
Answer: Hepatotoxic
